At least one compound was matched to its structure with a doubt left.
Test system: HSV-1
Assay: HSV-1 viral protein synthesis in infected H-ras transformed NIH-3T3 cells, Western blot with rabbit anti-HSV-1 antibody
Type: cell-based, HSV-1 (strain F)
Experimental: Western blot (Immunoblot) analysisinfected cells were lysed with the single detergent lysis buffer [50 mM Tris (pH 8.0), 150 mM NaCI, 0.02% sodium azide, 100 μg/ml phenylmethy-sulfonyl fluoride, 1 μg/ml aprotinin, and 1% Triton X-100], normalized for the amount of total protein and subjected to SDS-PAGE, followed by electroblotting onto nitrocellulose paper. The membrane was then washed and incubated with the primary antibody [rabbit antibody against all HSV-1 antigens (Dako, CA.; 1:20,000); mouse anti-ICP27 or anti-gC antibody (Rumbaugh-Goodwin Institute, FL; 1:1,000); rabbit anti-ICP8 antibody (from Dr. Paul Olivo, Washington University, St. Louis; 1:1,000); mouse anti-PKR and mouse anti-eIF-2 α antibody (Santa Cruz; 1:1,000); rabbit anti-phospho-PKR and rabbit antiphospho-eIF-2 α antibody (Biosource, CA; 1:1,000) followed by HRP-conjugated secondary antibody (1:2,000). After extensive washing, the blot was exposed to Lumigel detection solution (New England Biolabs) and subjected to autoradiography.
H-ras transformed NIH-3T3 cells were exposed to the farnesyl transferase inhibitors FTI-1 at a final concentration 50 μM or 100 μM in the culture medium. Control cells were not exposed to inhibitor. At 22 hours post-infection the cells were harvested and Western blot analysis was performed on these samples using rabbit anti-HSV-1 antibody, as described above. […]

COC[C@H]1OC(=O)c2coc3c2[C@@]1(C)C1=C(C3=O)[C@@H]2CCC(=O)[C@@]2(C)C[C@H]1OC(C)=O [Wortmannin]
HSV-1 infection / infectivity (summary statement) (H-ras transformed NIH-3T3 cells): neither SB203580 [11] a specific inhibitor of p38 kinase, or Wortmannin [12] a specific inhibitor of P13-kinase, had any measurable effect | effect on HSV-1 infection (viral proteins, immunoblot) (Wortmannin 200 nM for entire duration of infection, H-ras cells, 22 hr post infection): no effect on HSV-1 infection

Reference: patent publication US20010049113A1, “Diagnosis and treatment of herpes infections” (priority 2000, published 2001)
